Experimental data: PMC7862700
The entries are a selection whose mix differs from that of the whole data set. At the low end of the ranking the order means little.

Target: T1, ELK1 (UniProt P19419)
T1 sequence: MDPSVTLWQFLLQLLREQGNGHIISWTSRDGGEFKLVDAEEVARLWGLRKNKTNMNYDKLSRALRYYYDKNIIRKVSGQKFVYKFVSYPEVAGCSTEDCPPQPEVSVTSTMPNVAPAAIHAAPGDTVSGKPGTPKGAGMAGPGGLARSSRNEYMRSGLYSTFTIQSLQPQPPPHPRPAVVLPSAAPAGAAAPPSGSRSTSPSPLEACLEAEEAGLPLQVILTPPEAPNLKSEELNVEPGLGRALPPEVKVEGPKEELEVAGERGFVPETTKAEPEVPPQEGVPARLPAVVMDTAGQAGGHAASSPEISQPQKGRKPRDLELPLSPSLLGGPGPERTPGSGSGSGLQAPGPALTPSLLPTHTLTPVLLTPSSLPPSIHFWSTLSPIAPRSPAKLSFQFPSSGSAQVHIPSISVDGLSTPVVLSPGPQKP
Assay: DAPPL (digital affinity profiling via proximity ligation, sequencing)
Details: 10 mM Tris-HCl pH 7.5, 50 mM NaCl, 1 mM DTT, 4% glycerol, room temperature, 30 min; GST-TFs on glutathione beads, 16-mer random dsDNA library, 0.1% …; high values mean tight binding; double strand, one strand shown; scale: fold enrichment (6-mer frequency, TF over GST control)

Sequence | binding signal
TGGAAC | 0.953
CAAAGT | 0.989
CTCGGG | 0.994
GGGATT | 0.877
CGCACC | 0.957
GCAGCA | 0.992
CATTGA | 1.05
AGGAAT | 0.75
GTGGCA | 0.959
ATCAAG | 0.972
GTATGT | 0.972
CGGGCT | 0.987
AACTGT | 0.889
TGGGCG | 0.939
TACGAG | 0.972
TCTGAG | 0.953
CGTCCA | 0.993
GCGCCG | 0.952
GCAGAA | 0.869
ACAAGG | 0.961

Sequence | binding signal
AGCGGC | 0.956
CGAAGT | 0.947
CCCGTA | 1.11
GTAGAA | 0.928
CAAAGA | 0.962
TCTGGA | 0.995
TTAGTG | 0.862
TGGGTA | 0.965
GATAAG | 0.888
AGTTTA | 0.981
TGAAGA | 0.973
TAGTGT | 1.16
GAATGA | 0.988
TGGGAA | 1.08
GGCGTT | 0.994
GCCACC | 0.942
GTGCAC | 0.922
CCAGAA | 0.886
AGATAT | 0.981

Target: T2, ELK3 (UniProt P41970)
T2 sequence: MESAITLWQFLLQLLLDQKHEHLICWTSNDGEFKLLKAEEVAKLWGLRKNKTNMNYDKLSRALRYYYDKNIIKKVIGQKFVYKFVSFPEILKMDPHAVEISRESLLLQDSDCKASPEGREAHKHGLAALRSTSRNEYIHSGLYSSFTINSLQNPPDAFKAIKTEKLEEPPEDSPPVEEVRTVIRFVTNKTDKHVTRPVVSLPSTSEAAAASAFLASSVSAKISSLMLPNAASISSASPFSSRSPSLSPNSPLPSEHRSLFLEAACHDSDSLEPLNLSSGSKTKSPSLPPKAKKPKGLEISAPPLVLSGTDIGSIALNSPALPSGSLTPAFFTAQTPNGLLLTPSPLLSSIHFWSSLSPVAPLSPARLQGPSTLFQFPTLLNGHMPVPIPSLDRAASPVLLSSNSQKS
Assay: as above
Details: 10 mM Tris-HCl pH 7.5, 50 mM NaCl, 1 mM DTT, 4% glycerol, room temperature, 30 min; GST-TFs on glutathione beads, 16-mer random dsDNA library, 0.1% …; high values mean tight binding; double strand, one strand shown; scale: fold enrichment (6-mer frequency, TF over GST control)

Sequence | binding signal
TGGAAC | 0.969
GGGATT | 0.989
GCAGCA | 0.976
CATTGA | 0.898
AGGAAT | 0.778
TACGAG | 0.92
GCAGAA | 0.891
CGAAGT | 0.775
GTAGAA | 0.877
TTAGTG | 0.896
GCCACC | 0.965
GTGCAC | 0.894

Target: T3, SPIC (UniProt Q8N5J4)
T3 sequence: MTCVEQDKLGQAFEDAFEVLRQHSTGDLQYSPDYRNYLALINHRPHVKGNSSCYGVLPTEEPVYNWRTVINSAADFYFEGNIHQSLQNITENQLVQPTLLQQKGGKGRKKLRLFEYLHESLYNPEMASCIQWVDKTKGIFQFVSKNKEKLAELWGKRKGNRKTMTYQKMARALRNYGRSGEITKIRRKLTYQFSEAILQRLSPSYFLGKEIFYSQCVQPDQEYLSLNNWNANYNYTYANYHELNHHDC
Assay: as above
Details: 10 mM Tris-HCl pH 7.5, 50 mM NaCl, 1 mM DTT, 4% glycerol, room temperature, 30 min; GST-TFs on glutathione beads, 16-mer random dsDNA library, 0.1% …; high values mean tight binding; double strand, one strand shown; scale: fold enrichment (6-mer frequency, TF over GST control)

Sequence | binding signal
TGGAAC | 0.985
CAAAGT | 0.787
CTCGGG | 0.816
GGGATT | 0.829
CGCACC | 0.912
GCAGCA | 0.927
CATTGA | 0.896
AGGAAT | 0.858
GTGGCA | 1.04
ATCAAG | 0.972
GTATGT | 0.919
CGGGCT | 0.934
AACTGT | 0.98
TGGGCG | 0.953
TACGAG | 0.831
TCTGAG | 0.936
CGTCCA | 0.976
GCGCCG | 1.1
GCAGAA | 1.03
ACAAGG | 0.989

Sequence | binding signal
AGCGGC | 0.946
CGAAGT | 0.937
CCCGTA | 1.31
GTAGAA | 0.935
CAAAGA | 0.95
TCTGGA | 0.839
TTAGTG | 0.615
TGGGTA | 1.03
GATAAG | 0.948
AGTTTA | 0.947
TGAAGA | 1.01
TAGTGT | 0.969
GAATGA | 0.82
TGGGAA | 1.03
GGCGTT | 1.08
GCCACC | 0.941
GTGCAC | 0.997
CCAGAA | 0.948
AGATAT | 0.963

Target: T4, ETS2 (UniProt P15036)
T4 sequence: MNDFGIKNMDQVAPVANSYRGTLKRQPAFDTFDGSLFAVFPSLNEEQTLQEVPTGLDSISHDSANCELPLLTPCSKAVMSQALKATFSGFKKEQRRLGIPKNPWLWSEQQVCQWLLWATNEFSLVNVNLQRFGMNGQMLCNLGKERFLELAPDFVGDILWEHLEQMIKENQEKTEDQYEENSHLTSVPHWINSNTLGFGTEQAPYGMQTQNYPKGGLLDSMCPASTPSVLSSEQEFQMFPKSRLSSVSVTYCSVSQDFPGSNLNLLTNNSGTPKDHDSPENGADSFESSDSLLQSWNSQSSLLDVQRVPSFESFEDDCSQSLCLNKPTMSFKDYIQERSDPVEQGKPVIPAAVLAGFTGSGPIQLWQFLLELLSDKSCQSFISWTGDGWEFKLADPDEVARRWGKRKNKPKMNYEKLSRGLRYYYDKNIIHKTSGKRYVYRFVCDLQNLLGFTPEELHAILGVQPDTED
Assay: as above
Details: 10 mM Tris-HCl pH 7.5, 50 mM NaCl, 1 mM DTT, 4% glycerol, room temperature, 30 min; GST-TFs on glutathione beads, 16-mer random dsDNA library, 0.1% …; high values mean tight binding; double strand, one strand shown; scale: fold enrichment (6-mer frequency, TF over GST control)

Sequence | binding signal
TGGAAC | 0.919
CAAAGT | 0.977
CTCGGG | 0.953
GGGATT | 0.91
CGCACC | 0.965
GCAGCA | 0.946
CATTGA | 0.963
AGGAAT | 0.808
GTGGCA | 0.958
ATCAAG | 0.926
GTATGT | 0.999
CGGGCT | 1.07
AACTGT | 0.951
TGGGCG | 0.82
TACGAG | 0.957
TCTGAG | 1
CGTCCA | 0.976
GCGCCG | 0.969
GCAGAA | 0.901
ACAAGG | 0.946

Sequence | binding signal
AGCGGC | 0.919
CGAAGT | 0.901
CCCGTA | 1.2
GTAGAA | 0.92
CAAAGA | 0.939
TCTGGA | 0.971
TTAGTG | 0.911
TGGGTA | 0.996
GATAAG | 0.905
AGTTTA | 0.961
TGAAGA | 0.989
TAGTGT | 1.11
GAATGA | 0.943
TGGGAA | 1.02
GGCGTT | 0.907
GCCACC | 0.959
GTGCAC | 0.898
CCAGAA | 0.986
AGATAT | 0.978

Target: T5, ETV3 (UniProt P41162-2)
T5 sequence: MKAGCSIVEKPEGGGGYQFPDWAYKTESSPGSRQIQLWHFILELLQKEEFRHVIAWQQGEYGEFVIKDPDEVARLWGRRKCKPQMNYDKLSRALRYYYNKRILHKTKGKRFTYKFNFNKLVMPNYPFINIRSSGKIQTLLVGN
Assay: as above
Details: 10 mM Tris-HCl pH 7.5, 50 mM NaCl, 1 mM DTT, 4% glycerol, room temperature, 30 min; GST-TFs on glutathione beads, 16-mer random dsDNA library, 0.1% …; high values mean tight binding; double strand, one strand shown; scale: fold enrichment (6-mer frequency, TF over GST control)

Sequence | binding signal
TGGAAC | 0.955
CAAAGT | 0.945
CTCGGG | 1
GGGATT | 0.774
CGCACC | 0.955
GCAGCA | 0.925
CATTGA | 0.938
AGGAAT | 0.828
GTGGCA | 1
ATCAAG | 0.957
GTATGT | 0.952
CGGGCT | 0.959
AACTGT | 0.955
TGGGCG | 0.865
TACGAG | 0.874
TCTGAG | 0.973
CGTCCA | 1.03
GCGCCG | 0.96
GCAGAA | 0.849
ACAAGG | 0.961

Sequence | binding signal
AGCGGC | 0.919
CGAAGT | 0.823
CCCGTA | 1.21
GTAGAA | 0.858
CAAAGA | 0.928
TCTGGA | 1.05
TTAGTG | 0.853
TGGGTA | 0.909
GATAAG | 0.865
AGTTTA | 0.985
TGAAGA | 0.93
TAGTGT | 1.13
GAATGA | 0.865
TGGGAA | 0.979
GGCGTT | 0.901
GCCACC | 0.892
GTGCAC | 0.968
CCAGAA | 0.949
AGATAT | 0.981
